Our source for the binding signal values is article PMC7819943, “Rice protein-binding microarrays: a tool to detect cis-acting elements near promoter regions in rice”.

This is one part of the list.

In this assay the target is T1, OsSMF1 (Oryza sativa, UniProt Q6ZLB0 1-436).
T1 sequence: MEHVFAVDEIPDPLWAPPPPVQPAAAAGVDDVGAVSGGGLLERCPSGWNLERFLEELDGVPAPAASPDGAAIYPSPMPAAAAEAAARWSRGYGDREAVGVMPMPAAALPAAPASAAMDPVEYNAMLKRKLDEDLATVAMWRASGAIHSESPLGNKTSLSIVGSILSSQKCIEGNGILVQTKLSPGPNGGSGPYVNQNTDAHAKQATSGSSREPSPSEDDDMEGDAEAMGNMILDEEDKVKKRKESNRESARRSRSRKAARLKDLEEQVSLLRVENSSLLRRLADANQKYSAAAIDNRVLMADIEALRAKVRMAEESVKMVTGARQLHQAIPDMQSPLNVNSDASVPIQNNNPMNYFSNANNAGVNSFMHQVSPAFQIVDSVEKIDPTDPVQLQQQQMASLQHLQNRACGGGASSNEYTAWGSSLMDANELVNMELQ
Kind of assay: protein-binding microarray (RPBM); PBS, 2% BSA, 51.3 ng/ul salmon testes DNA, 50 uM zinc acetate, 200 nM TF, 25 C, 1 h; high values mean tight binding. To be noted: protein: recombinant; tags: N-terminal polyhistidine and DsRed monomer fusion (pET32a); chain copies: 2; label: CyDye5-dUTP incorporated in the synthesized complementary strand; 3' TTTTT single-stranded linker to array surface; dsDNA, one strand shown. In a few lines:
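Binding signal here means per-feature fluorescence intensity in arbitrary units. The values were read on an Axon 4000B scanner after a custom Agilent array, double-stranded by primer extension with Cy5-dUTP, was incubated with 200 nM protein at 25 °C for 1 h in PBS with 2% BSA, salmon testes DNA and 50 µM zinc acetate, then washed. The proteins were transcription factors with an N-terminal polyhistidine tag and DsRed, expressed in E. coli BL21-CodonPlus and purified on Ni–NTA.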
As for “ATCCTAGGTGGAACAGACACGTCATCTTGCAGGTGGACCCCGGAGTCACCTAGTGCAG”, the binding signal is 20500 fluorescence intensity (a.u.).
As to “GGCGACCGTGTGAGCCTCTGAATAATCCCACATTGCTTAGCGGAGTCACCTAGTGCAG”, the binding signal was 3380 fluorescence intensity (a.u.).
As for “CGGGGCGAGGCGACAGGTACGCGTGGCACGGCTGCTTTCCCGGAGTCACCTAGTGCAG”, the figure is 5920 fluorescence intensity (a.u.).
On to “CCCTCCACATGACATCACCCCTCGCGCGGCTGCTGCTCTCCGGAGTCACCTAGTGCAG”, for which the binding signal was 6690 fluorescence intensity (a.u.).
Take “AAGCCAGCTATTACTAGACCAGACTAATCGCTTGACCTGTCGGAGTCACCTAGTGCAG”: the binding signal is 10100 fluorescence intensity (a.u.).
To “AAATAACAAAATTACAAGTTTAACATAAATATGTAATCACCGGAGTCACCTAGTGCAG” belongs 21200 fluorescence intensity (a.u.); to “TTTCCTTCGCTAGGCCGAAGCCTAGCTCTGTCACCATGTCCGGAGTCACCTAGTGCAG”, 3530 fluorescence intensity (a.u.); to “AACGTGAGAGCTTCCATGCTTATATATTACTTACCCCAGCCGGAGTCACCTAGTGCAG”, 3440 fluorescence intensity (a.u.).
To “CCTTCACGTATTGACTAGATCTGGTTAGTCAGACACCTCTCGGAGTCACCTAGTGCAG” belongs 4780 fluorescence intensity (a.u.).
To “GATACATGTATGTATGACAGGTGCGACCAAGTATAAATTGCGGAGTCACCTAGTGCAG” belongs 3240 fluorescence intensity (a.u.); to “GTCGCCACTGCCCACCTCATTTAGCTTCGCGGGTTGCTTCCGGAGTCACCTAGTGCAG”, 3360 fluorescence intensity (a.u.); to “GCACCAAACCGTACCAAACCAGACTAACGGCCCATGCAACCGGAGTCACCTAGTGCAG”, 8760 fluorescence intensity (a.u.).
Regarding “CCCCATGACAAGTCCACATAAGTCTTCAAATACTGCTCGACGGAGTCACCTAGTGCAG”, the binding signal is 4180 fluorescence intensity (a.u.).
To “GAGAAGGTTAGGCTTGGGCGTGGTGTGGTGTTGGTGGGTGCGGAGTCACCTAGTGCAG” belongs 3230 fluorescence intensity (a.u.); to “TCCAGCACACACGCCGCACACGCGTACACCCAAGTTGCCTCGGAGTCACCTAGTGCAG”, 4160 fluorescence intensity (a.u.); to “CGTAGCCCATTACGTGGGTCCACCGCCACGCCTACCCATTCGGAGTCACCTAGTGCAG”, 25700 fluorescence intensity (a.u.).
As for “ATGCTATATAAATGCCACGTTGTGCGAAGACCAAGTCAACCGGAGTCACCTAGTGCAG”, the figure is 3510 fluorescence intensity (a.u.); as for “GCAAAAGCATCTTGGAGGAGATACAGTCAGCTGGCAATCCCGGAGTCACCTAGTGCAG”, 4160 fluorescence intensity (a.u.).
As for “AGAGCCAAACAAAATAGGGAAGTTCTAAATTAAATAACATCGGAGTCACCTAGTGCAG”, the figure is 27600 fluorescence intensity (a.u.).
As to “ACTTATTATGCAACTGTGATGATGTAACTGTGATGTTTATCGGAGTCACCTAGTGCAG”, the binding signal was 3190 fluorescence intensity (a.u.).
As for “TTGGCTGGAGCATCGTCACTACTATTCGACACTAAGGTGTCGGAGTCACCTAGTGCAG”, the figure is 3240 fluorescence intensity (a.u.).
Turning to “CAACTCCGCTCGCCAATCCACAGCTGGCCTCCATTTCTTCCGGAGTCACCTAGTGCAG”, the binding signal is 24000 fluorescence intensity (a.u.).
As for “GTCGCTGGCCTCGGTGAATCCGTGCGCCGCGGCGGCTTCGCGGAGTCACCTAGTGCAG”, the figure is 3340 fluorescence intensity (a.u.); as for “TTAATTATTAAATTCTTTTCACTGTCTACTACTTGTTCCGCGGAGTCACCTAGTGCAG”, 22300 fluorescence intensity (a.u.).
As for “CAGTCGAAAGCGTACGGACCCAGGAGAGTTGCTGACTCAGCGGAGTCACCTAGTGCAG”, the figure is 17700 fluorescence intensity (a.u.); as for “TCATAAGTACTCGTATACCGACACGATAGTTAACTCATTCCGGAGTCACCTAGTGCAG”, 3420 fluorescence intensity (a.u.).
On to “AAAGAATATGCTGACCATTAGGCCATTAATCTTGCCCGCGCGGAGTCACCTAGTGCAG”, for which the binding signal is 3140 fluorescence intensity (a.u.).
To “CAGCTAGGATAATTGAGAGTTGACACGTAAGGCAGCTTCGCGGAGTCACCTAGTGCAG” belongs 13800 fluorescence intensity (a.u.).
As for “ACTTGATCAGCACACTCTGGTGACATGACAGCTGTAAAGTCGGAGTCACCTAGTGCAG”, the figure is 4180 fluorescence intensity (a.u.); as for “CGAGGAGCGGGGTGGGGTCGGAGGCGGGGAGGGAGGACGCCGGAGTCACCTAGTGCAG”, 4780 fluorescence intensity (a.u.).
Consider “TCAAGGGAGATGGAGGGTTGCAGCGGCGGCGGAGGGGCGGCGGAGTCACCTAGTGCAG”, for which the binding signal is 5320 fluorescence intensity (a.u.).
On to “GTTGTACTGTGCTCATCGGCGCCACACGTCGCGGTGCATGCGGAGTCACCTAGTGCAG”, for which the binding signal was 3330 fluorescence intensity (a.u.).
To “CTAGTAAGCATTGATCATGCATTTCTAAACTCAATGGCTGCGGAGTCACCTAGTGCAG” belongs 3280 fluorescence intensity (a.u.); to “TCGTCCGCTCCGCTTCAGCGAATCGGCACCGCCGCGTGTCCGGAGTCACCTAGTGCAG”, 3640 fluorescence intensity (a.u.).
As for “AGTGATCAGAATTCAGACATTATACTGTTCTATGATAATACGGAGTCACCTAGTGCAG”, the figure is 38000 fluorescence intensity (a.u.); as for “ACACATCCAGCTCCTACCTCTCCTGAATCGCTCGTCAGATCGGAGTCACCTAGTGCAG”, 3810 fluorescence intensity (a.u.).
To “TCATTCGTGATTTACAAGTGCCTTGACACAGGCAAGATTGCGGAGTCACCTAGTGCAG” belongs 3510 fluorescence intensity (a.u.); to “GAGTTGCAGTGCGTGTGCTAGCTGCAAGAGAGCTAGCTAGCGGAGTCACCTAGTGCAG”, 36300 fluorescence intensity (a.u.); to “GCCGAGCTCGCCGTACCCCGCCGCGTGTGCCTCCCGCCGCCGGAGTCACCTAGTGCAG”, 5180 fluorescence intensity (a.u.).
Turning to “TATGTTCATTTCCTTATTTGCCTCTCGTCATGTCTCTTGACGGAGTCACCTAGTGCAG”, the binding signal was 3420 fluorescence intensity (a.u.).
“AATGACTCACTGATTTGTTTAGATGATCGATTAATTGCATCGGAGTCACCTAGTGCAG”: the binding signal was 4540 fluorescence intensity (a.u.).
To “GACGTTAGCAGGGATGACCAAAAGGTTGATAGACTCGCGACGGAGTCACCTAGTGCAG” belongs 27300 fluorescence intensity (a.u.).
